Where a name gives a salt, the structure may show the parent alone. The list shows a part of the results. The calls rarely recur for the same compound in another form.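 In K562 cells expressing nanoluciferase-fused kinases, luminescence was recorded at 4 h intervals between 2 and 18 h, normalized as percent of control with DMSO at 100% and a positive control at 0%. A significant (2 sigma) signal drop marks a time point as decreased. The authors' rule for a hit is not shown and takes in more than the number of time points.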
What was measured:
Experiment in all cases: kinase-Nluc reporter destabilization hit call (1 = scored as downregulated) (binary); higher = compound decreases kinase abundance
Settings in all cases: K562; 2-18 h
MAPK1 = MAPK1 (UniProt P28482)
MAPK4 = MAPK4 (UniProt P31152)
MAPKAPK2 = MAPKAPK2 (UniProt P49137)
MKNK1 = MKNK1 (UniProt Q9BUB5)
NTRK2 = NTRK2 (UniProt Q16620)
NTRK3 = NTRK3 (UniProt Q16288)
PAK4 = PAK4 (UniProt O96013)
PBK = PBK (UniProt Q96KB5)
PDGFRB = PDGFRB (UniProt P09619)
PDK1 = PDK1 (UniProt Q15118)
PDPK1 = PDPK1 (UniProt O15530)
PIK4CA = PIK4CA (UniProt P42356)
PIK4CB = PIK4CB (UniProt Q9UBF8)
PLK1 = PLK1 (UniProt P53350)
PRKAA1 = PRKAA1 (UniProt Q13131)
PRKCA = PRKCA (UniProt P17252)
PTK2 = PTK2 (UniProt Q05397)
PTK2B = PTK2B (UniProt Q14289)
RAF1 = RAF1 (UniProt P04049)
[1] = biological target: RAF1_S257L (clone: RAF1_mut) (UniProt P04049)

Sequences of proteins named here, by UniProt entry; tags and fusion partners are left off. A change or cut given only in a name is not applied to a line headed by its entry.
UniProt Q16620, whole entry, looked up: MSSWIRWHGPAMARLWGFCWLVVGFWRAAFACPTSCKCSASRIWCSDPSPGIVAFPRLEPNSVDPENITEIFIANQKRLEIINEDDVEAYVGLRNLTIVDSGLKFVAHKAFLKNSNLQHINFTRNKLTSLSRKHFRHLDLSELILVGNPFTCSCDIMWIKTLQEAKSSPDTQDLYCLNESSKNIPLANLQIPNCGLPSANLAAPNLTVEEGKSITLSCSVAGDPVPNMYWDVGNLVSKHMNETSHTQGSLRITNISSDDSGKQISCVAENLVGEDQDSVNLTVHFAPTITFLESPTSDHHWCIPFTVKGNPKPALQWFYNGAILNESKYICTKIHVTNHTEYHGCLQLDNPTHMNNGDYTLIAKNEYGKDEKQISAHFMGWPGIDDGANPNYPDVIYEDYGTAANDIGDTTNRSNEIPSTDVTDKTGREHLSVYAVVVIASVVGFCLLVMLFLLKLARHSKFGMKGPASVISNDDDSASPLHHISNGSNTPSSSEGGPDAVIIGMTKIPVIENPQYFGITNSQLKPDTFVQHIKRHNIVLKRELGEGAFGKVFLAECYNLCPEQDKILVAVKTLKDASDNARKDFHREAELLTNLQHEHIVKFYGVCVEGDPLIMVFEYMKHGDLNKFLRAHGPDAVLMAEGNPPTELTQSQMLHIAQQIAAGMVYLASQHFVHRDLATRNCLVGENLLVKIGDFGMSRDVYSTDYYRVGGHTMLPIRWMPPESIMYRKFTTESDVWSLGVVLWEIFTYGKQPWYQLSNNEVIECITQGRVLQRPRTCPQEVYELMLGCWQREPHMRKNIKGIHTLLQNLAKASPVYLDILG
UniProt Q16288, whole entry, looked up: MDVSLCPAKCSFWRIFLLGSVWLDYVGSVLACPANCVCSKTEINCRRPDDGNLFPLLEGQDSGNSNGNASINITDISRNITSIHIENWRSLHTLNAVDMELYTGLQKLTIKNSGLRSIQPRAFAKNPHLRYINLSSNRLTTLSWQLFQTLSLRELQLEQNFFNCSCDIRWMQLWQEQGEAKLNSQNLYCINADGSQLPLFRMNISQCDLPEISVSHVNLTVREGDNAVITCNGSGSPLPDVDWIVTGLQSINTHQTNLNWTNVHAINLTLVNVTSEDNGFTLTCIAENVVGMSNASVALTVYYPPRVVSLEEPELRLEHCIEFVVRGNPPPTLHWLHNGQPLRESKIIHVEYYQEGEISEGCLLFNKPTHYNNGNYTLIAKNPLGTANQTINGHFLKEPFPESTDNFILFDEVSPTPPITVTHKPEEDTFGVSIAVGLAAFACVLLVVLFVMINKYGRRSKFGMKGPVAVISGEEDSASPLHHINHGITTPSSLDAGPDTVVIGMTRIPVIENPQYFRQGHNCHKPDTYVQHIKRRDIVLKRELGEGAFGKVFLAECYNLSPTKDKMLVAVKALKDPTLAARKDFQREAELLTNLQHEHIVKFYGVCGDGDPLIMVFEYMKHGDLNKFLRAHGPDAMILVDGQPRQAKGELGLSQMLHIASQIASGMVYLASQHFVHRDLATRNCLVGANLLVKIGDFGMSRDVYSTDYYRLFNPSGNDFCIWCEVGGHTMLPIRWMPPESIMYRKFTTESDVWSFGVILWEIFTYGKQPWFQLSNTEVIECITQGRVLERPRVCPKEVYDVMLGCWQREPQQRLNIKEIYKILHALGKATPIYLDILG
UniProt O96013: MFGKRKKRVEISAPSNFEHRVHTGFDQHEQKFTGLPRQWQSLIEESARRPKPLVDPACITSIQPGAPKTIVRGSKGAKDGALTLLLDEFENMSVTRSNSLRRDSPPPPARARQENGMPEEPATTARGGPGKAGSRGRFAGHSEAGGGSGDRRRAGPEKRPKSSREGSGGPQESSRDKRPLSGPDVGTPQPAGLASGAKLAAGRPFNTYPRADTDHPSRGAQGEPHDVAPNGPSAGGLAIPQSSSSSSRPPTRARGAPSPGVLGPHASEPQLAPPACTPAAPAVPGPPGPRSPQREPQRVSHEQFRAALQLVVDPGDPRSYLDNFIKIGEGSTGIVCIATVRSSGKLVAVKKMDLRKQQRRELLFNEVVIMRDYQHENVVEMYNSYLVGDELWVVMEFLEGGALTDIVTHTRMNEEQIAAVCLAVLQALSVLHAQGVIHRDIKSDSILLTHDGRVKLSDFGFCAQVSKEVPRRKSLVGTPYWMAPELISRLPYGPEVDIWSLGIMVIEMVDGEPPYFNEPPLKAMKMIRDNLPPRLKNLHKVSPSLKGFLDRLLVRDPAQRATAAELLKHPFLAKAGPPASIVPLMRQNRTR
UniProt Q96KB5: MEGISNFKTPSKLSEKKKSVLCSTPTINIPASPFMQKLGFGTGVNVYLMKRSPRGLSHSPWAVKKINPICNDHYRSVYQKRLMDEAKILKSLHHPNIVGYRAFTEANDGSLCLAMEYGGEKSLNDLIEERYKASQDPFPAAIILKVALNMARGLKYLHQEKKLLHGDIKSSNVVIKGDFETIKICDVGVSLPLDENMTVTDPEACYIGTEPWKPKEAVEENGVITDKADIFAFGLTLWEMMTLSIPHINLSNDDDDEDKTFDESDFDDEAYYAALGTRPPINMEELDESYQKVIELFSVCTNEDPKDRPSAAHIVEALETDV
UniProt O15530: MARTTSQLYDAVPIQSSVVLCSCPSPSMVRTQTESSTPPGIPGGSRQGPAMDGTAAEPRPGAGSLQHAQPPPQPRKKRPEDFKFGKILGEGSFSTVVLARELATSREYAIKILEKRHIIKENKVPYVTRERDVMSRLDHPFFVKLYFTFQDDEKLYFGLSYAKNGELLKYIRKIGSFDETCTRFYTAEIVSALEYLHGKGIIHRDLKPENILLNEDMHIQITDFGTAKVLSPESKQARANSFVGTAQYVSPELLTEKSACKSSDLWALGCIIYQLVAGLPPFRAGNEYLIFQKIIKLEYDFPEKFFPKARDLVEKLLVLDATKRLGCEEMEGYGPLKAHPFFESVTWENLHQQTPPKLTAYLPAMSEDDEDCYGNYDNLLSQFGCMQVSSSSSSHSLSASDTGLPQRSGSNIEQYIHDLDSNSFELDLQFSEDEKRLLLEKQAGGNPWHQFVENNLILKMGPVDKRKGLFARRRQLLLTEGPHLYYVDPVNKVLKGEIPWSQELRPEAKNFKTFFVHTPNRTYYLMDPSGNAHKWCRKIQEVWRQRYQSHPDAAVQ
UniProt P42356, whole entry, looked up: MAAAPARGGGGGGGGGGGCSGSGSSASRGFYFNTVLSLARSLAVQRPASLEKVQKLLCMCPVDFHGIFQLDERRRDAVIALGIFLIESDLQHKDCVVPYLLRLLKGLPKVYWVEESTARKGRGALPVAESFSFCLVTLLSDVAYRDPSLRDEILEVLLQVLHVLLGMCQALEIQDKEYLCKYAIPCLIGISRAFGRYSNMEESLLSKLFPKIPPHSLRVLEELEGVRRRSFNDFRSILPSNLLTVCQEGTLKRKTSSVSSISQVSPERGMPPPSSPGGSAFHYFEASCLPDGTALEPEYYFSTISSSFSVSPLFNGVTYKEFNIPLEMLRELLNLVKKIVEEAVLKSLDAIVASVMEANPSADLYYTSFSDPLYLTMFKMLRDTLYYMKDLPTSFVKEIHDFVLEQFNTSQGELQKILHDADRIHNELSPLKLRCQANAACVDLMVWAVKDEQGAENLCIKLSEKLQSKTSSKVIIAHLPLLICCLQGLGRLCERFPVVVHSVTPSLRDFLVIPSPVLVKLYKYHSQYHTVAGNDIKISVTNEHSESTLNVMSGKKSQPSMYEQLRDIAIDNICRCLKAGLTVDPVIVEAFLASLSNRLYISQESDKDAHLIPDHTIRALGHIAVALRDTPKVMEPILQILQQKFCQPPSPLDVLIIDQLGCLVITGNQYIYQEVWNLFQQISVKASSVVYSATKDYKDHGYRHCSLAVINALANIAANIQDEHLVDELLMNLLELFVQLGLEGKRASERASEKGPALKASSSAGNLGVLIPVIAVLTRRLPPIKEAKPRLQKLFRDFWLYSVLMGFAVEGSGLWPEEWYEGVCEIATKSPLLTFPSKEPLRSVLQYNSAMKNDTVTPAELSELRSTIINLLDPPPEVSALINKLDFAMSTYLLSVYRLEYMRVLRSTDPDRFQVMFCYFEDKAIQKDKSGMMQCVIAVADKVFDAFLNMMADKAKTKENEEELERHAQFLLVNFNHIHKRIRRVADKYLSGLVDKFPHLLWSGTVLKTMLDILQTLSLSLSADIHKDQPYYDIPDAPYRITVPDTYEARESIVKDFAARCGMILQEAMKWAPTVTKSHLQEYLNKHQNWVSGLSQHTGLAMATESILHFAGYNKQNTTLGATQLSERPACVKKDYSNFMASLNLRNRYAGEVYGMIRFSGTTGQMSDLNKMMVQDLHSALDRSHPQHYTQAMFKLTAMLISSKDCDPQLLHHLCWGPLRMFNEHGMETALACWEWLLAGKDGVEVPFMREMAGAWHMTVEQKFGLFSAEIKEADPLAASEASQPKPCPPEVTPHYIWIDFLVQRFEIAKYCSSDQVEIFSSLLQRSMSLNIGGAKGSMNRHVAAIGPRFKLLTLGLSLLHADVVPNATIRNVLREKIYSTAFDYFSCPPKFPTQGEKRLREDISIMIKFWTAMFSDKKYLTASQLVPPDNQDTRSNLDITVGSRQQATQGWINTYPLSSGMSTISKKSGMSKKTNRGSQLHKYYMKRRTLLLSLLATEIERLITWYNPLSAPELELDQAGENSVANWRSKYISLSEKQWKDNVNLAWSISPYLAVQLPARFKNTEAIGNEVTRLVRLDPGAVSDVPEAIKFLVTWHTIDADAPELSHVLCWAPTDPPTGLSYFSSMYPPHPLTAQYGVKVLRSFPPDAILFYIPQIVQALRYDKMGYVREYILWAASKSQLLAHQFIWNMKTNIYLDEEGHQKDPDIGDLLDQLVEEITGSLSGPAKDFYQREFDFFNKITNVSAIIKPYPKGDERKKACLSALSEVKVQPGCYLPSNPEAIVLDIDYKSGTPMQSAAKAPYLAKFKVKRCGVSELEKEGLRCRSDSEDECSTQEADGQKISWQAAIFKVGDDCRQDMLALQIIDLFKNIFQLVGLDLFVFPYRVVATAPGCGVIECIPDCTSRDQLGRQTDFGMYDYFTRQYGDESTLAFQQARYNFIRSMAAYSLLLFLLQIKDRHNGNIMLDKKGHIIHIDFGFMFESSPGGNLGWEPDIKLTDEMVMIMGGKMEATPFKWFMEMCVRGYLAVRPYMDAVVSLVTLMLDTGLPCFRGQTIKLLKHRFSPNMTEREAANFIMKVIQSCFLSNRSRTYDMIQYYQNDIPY
UniProt P53350, whole entry: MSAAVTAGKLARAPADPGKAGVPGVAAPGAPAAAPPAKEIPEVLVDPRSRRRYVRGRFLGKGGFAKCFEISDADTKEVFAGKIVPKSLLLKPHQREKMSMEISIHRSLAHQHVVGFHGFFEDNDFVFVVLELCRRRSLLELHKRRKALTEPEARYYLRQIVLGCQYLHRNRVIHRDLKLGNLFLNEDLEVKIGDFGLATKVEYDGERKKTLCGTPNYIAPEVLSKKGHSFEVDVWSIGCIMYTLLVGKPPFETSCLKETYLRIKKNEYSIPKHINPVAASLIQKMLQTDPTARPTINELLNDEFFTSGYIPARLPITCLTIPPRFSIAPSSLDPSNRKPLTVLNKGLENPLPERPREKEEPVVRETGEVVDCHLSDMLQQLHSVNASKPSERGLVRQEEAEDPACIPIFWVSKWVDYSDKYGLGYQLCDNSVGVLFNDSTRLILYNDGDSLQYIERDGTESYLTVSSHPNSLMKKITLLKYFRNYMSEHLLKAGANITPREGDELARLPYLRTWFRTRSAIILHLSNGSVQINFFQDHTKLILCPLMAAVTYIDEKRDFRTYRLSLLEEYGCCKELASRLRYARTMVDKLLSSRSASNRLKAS

Measured: kinase-Nluc reporter destabilization hit call

Cc1cc(Nc2cc(N)ncn2)c(=O)n2c1C(=O)NC21CCCCC1 [Tomivosertib] (10 µM)
inactive: MAPK1 = 0 | MAPK4 = 0 | MAPKAPK2 = 0 | MKNK1 = 0 | NTRK2 = 0 | NTRK3 = 0 | PAK4 = 0 | PBK 0 | PDGFRB 0 | PDK1 = 0 | PDPK1 = 0 | PIK4CA 0 | PIK4CB 0 | PLK1 = 0 | PRKAA1 = 0 | PRKCA 0 | PTK2 = 0 | PTK2B 0 | RAF1 = 0 | [1] 0

Cc1cc(C(=O)NOCCO)c(Nc2ccc(I)cc2F)n(C)c1=O (10 µM)
inactive: MAPK1 = 0 | MAPK4 = 0 | MAPKAPK2 = 0 | MKNK1 = 0 | NTRK2 = 0 | NTRK3 = 0 | PAK4 = 0 | PBK 0 | PDGFRB 0 | PDK1 = 0 | PDPK1 = 0 | PIK4CA 0 | PIK4CB 0 | PLK1 = 0 | PRKAA1 = 0 | PRKCA 0 | PTK2 = 0 | PTK2B 0 | RAF1 = 0 | [1] 0

Cn1cc(-c2cc(Oc3cc(F)c(NC(=O)C4(C(=O)Nc5ccccc5)CC4)cc3F)ccn2)cn1 (2.5 µM)
inactive: MAPK1 = 0 | MAPK4 = 0 | MAPKAPK2 = 0 | MKNK1 = 0 | NTRK2 = 0 | NTRK3 = 0 | PAK4 = 0 | PBK 0 | PDGFRB 0 | PDK1 = 0 | PDPK1 = 0 | PIK4CA 0 | PIK4CB 0 | PLK1 = 0 | PRKAA1 = 0 | PRKCA 0 | PTK2 = 0 | PTK2B 0 | RAF1 = 0 | [1] 0

O=C(Nc1cccnc1)c1cc(-c2ccnc(F)c2)ccc1OCc1ccccc1 (10 µM)
inactive: MAPK1 = 0 | MAPK4 = 0 | MAPKAPK2 = 0 | MKNK1 = 0 | NTRK2 = 0 | NTRK3 = 0 | PAK4 = 0 | PBK 0 | PDGFRB 0 | PDK1 = 0 | PDPK1 = 0 | PIK4CA 0 | PIK4CB 0 | PLK1 = 0 | PRKAA1 = 0 | PRKCA 0 | PTK2 = 0 | PTK2B 0 | RAF1 = 0 | [1] 0

Part of the list above in order of length of the SMILES, rising:
Cc1cc(C(=O)NOCCO)c(Nc2ccc(I)cc2F)n(C)c1=O (10 µM)
inactive: MAPK1 = 0 | MAPK4 = 0 | MAPKAPK2 = 0 | MKNK1 = 0 | NTRK2 = 0 | NTRK3 = 0 | PAK4 = 0 | PBK 0 | PDGFRB 0 | PDK1 = 0 | PDPK1 = 0 | PIK4CA 0 | PIK4CB 0 | PLK1 = 0 | PRKAA1 = 0 | PRKCA 0 | PTK2 = 0 | PTK2B 0 | RAF1 = 0 | [1] 0

Cc1cc(Nc2cc(N)ncn2)c(=O)n2c1C(=O)NC21CCCCC1 [Tomivosertib] (10 µM)
inactive: MAPK1 = 0 | MAPK4 = 0 | MAPKAPK2 = 0 | MKNK1 = 0 | NTRK2 = 0 | NTRK3 = 0 | PAK4 = 0 | PBK 0 | PDGFRB 0 | PDK1 = 0 | PDPK1 = 0 | PIK4CA 0 | PIK4CB 0 | PLK1 = 0 | PRKAA1 = 0 | PRKCA 0 | PTK2 = 0 | PTK2B 0 | RAF1 = 0 | [1] 0

Cn1cc(-c2cc(Oc3cc(F)c(NC(=O)C4(C(=O)Nc5ccccc5)CC4)cc3F)ccn2)cn1 (2.5 µM)
inactive: MAPK1 = 0 | MAPK4 = 0 | MAPKAPK2 = 0 | MKNK1 = 0 | NTRK2 = 0 | NTRK3 = 0 | PAK4 = 0 | PBK 0 | PDGFRB 0 | PDK1 = 0 | PDPK1 = 0 | PIK4CA 0 | PIK4CB 0 | PLK1 = 0 | PRKAA1 = 0 | PRKCA 0 | PTK2 = 0 | PTK2B 0 | RAF1 = 0 | [1] 0

Next part.

COc1ccc(Nc2ncc(C(F)(F)F)c(NC3CC3)n2)cc1OC (10 µM)
inactive: MAPK1 = 0 | MAPK4 = 0 | MAPKAPK2 = 0 | MKNK1 = 0 | NTRK2 = 0 | NTRK3 = 0 | PAK4 = 0 | PBK 0 | PDGFRB 0 | PDK1 = 0 | PDPK1 = 0 | PIK4CA 0 | PIK4CB 0 | PLK1 = 0 | PRKAA1 = 0 | PRKCA 0 | PTK2 = 0 | PTK2B 0 | RAF1 = 0 | [1] 0

Nc1ncnc2c1nc(Br)n2[C@@H]1O[C@@H]2COP(=O)(O)O[C@H]2[C@H]1O [8-Bromo-cAMP sodium salt] (10 µM)
inactive: MAPK1 = 0 | MAPK4 = 0 | MAPKAPK2 = 0 | MKNK1 = 0 | NTRK2 = 0 | NTRK3 = 0 | PAK4 = 0 | PBK 0 | PDGFRB 0 | PDK1 = 0 | PDPK1 = 0 | PIK4CA 0 | PIK4CB 0 | PLK1 = 0 | PRKAA1 = 0 | PRKCA 0 | PTK2 = 0 | PTK2B 0 | RAF1 = 0 | [1] 0

COc1cc2ncnc(Nc3cccc(I)c3)c2cc1OC (2.5 µM)
inactive: MAPK1 = 0 | MAPK4 = 0 | MAPKAPK2 = 0 | MKNK1 = 0 | NTRK2 = 0 | NTRK3 = 0 | PAK4 = 0 | PBK 0 | PDGFRB 0 | PDK1 = 0 | PDPK1 = 0 | PIK4CA 0 | PIK4CB 0 | PLK1 = 0 | PRKAA1 = 0 | PRKCA 0 | PTK2 = 0 | PTK2B 0 | RAF1 = 0 | [1] 0

C=CC(=O)N1CCC[C@@H](n2nc(-c3ccc(Oc4ccccc4)cc3)c3c(N)n[nH]c(=O)c32)C1 [BTK inhibitor 17] (10 µM)
inactive: MAPK1 = 0 | MAPK4 = 0 | MAPKAPK2 = 0 | MKNK1 = 0 | NTRK2 = 0 | NTRK3 = 0 | PAK4 = 0 | PBK 0 | PDGFRB 0 | PDK1 = 0 | PDPK1 = 0 | PIK4CA 0 | PIK4CB 0 | PLK1 = 0 | PRKAA1 = 0 | PRKCA 0 | PTK2 = 0 | PTK2B 0 | RAF1 = 0 | [1] 0

CCCCCC(=O)N[C@@H](Cc1ccc(O)cc1)C(=O)OC (10 µM)
inactive: MAPK1 = 0 | MAPK4 = 0 | MAPKAPK2 = 0 | MKNK1 = 0 | NTRK2 = 0 | NTRK3 = 0 | PAK4 = 0 | PBK 0 | PDGFRB 0 | PDK1 = 0 | PDPK1 = 0 | PIK4CA 0 | PIK4CB 0 | PLK1 = 0 | PRKAA1 = 0 | PRKCA 0 | PTK2 = 0 | PTK2B 0 | RAF1 = 0 | [1] 0

CCNC(=O)C#Cc1ccc2c(C(=Nc3ccc(CN(C)C)cc3)c3ccccc3)c(O)[nH]c2c1 (2.5 µM)
inactive: MAPK1 = 0 | MAPK4 = 0 | MAPKAPK2 = 0 | MKNK1 = 0 | NTRK2 = 0 | NTRK3 = 0 | PAK4 = 0 | PBK 0 | PDGFRB 0 | PDK1 = 0 | PDPK1 = 0 | PIK4CA 0 | PIK4CB 0 | PLK1 = 0 | PRKAA1 = 0 | PRKCA 0 | PTK2 = 0 | PTK2B 0 | RAF1 = 0 | [1] 0

CC(C)=CCC/C(C)=C/CC/C(C)=C/C=C/C(C)=C/C(=O)O [Peretinoin] (10 µM)
inactive: MAPK1 = 0 | MAPK4 = 0 | MAPKAPK2 = 0 | MKNK1 = 0 | NTRK2 = 0 | NTRK3 = 0 | PAK4 = 0 | PBK 0 | PDGFRB 0 | PDK1 = 0 | PDPK1 = 0 | PIK4CA 0 | PIK4CB 0 | PLK1 = 0 | PRKAA1 = 0 | PRKCA 0 | PTK2 = 0 | PTK2B 0 | RAF1 = 0 | [1] 0

CCCn1/c(=N/C(=O)c2cccc(C(N)=O)c2)[nH]c2ccccc21 [Takinib] (10 µM)
inactive: MAPK1 = 0 | MAPK4 = 0 | MAPKAPK2 = 0 | MKNK1 = 0 | NTRK2 = 0 | NTRK3 = 0 | PAK4 = 0 | PBK 0 | PDGFRB 0 | PDK1 = 0 | PDPK1 = 0 | PIK4CA 0 | PIK4CB 0 | PLK1 = 0 | PRKAA1 = 0 | PRKCA 0 | PTK2 = 0 | PTK2B 0 | RAF1 = 0 | [1] 0

COc1ccc(-c2cc(=O)c3c(OC)cc(OC)c(OC)c3o2)cc1 [6-Demethoxytangeretin] (10 µM)
inactive: MAPK1 = 0 | MAPK4 = 0 | MAPKAPK2 = 0 | MKNK1 = 0 | NTRK2 = 0 | NTRK3 = 0 | PAK4 = 0 | PBK 0 | PDGFRB 0 | PDK1 = 0 | PDPK1 = 0 | PIK4CA 0 | PIK4CB 0 | PLK1 = 0 | PRKAA1 = 0 | PRKCA 0 | PTK2 = 0 | PTK2B 0 | RAF1 = 0 | [1] 0

O=C(Nc1cccc(-c2nc(-c3ccc(NC(=O)c4cccnc4)cc3Cl)no2)c1)Nc1ccc(NC(=O)C2CC2)c(C(F)(F)F)c1 (2.5 µM)
inactive: MAPK1 = 0 | MAPK4 = 0 | MAPKAPK2 = 0 | MKNK1 = 0 | NTRK2 = 0 | NTRK3 = 0 | PAK4 = 0 | PBK 0 | PDGFRB 0 | PDK1 = 0 | PDPK1 = 0 | PIK4CA 0 | PIK4CB 0 | PLK1 = 0 | PRKAA1 = 0 | PRKCA 0 | PTK2 = 0 | PTK2B 0 | RAF1 = 0 | [1] 0

Cc1c(C(=O)Nc2ccc(Oc3ccnc4[nH]cc(-c5ccccc5)c34)c(F)c2)c(=O)n(-c2ccc(F)cc2)n1C (10 µM)
inactive: MAPK1 = 0 | MAPK4 = 0 | MAPKAPK2 = 0 | MKNK1 = 0 | NTRK2 = 0 | NTRK3 = 0 | PAK4 = 0 | PBK 0 | PDGFRB 0 | PDK1 = 0 | PDPK1 = 0 | PIK4CA 0 | PIK4CB 0 | PLK1 = 0 | PRKAA1 = 0 | PRKCA 0 | PTK2 = 0 | PTK2B 0 | RAF1 = 0 | [1] 0

Cn1ncc(NC(=O)c2nc(-c3c(F)cccc3F)sc2N)c1N1CC[C@@H](N)[C@H](F)CC1 (10 µM)
inactive: MAPK1 = 0 | MAPK4 = 0 | MAPKAPK2 = 0 | MKNK1 = 0 | NTRK2 = 0 | NTRK3 = 0 | PAK4 = 0 | PBK 0 | PDGFRB 0 | PDK1 = 0 | PDPK1 = 0 | PIK4CA 0 | PIK4CB 0 | PLK1 = 0 | PRKAA1 = 0 | PRKCA 0 | PTK2 = 0 | PTK2B 0 | RAF1 = 0 | [1] 0

Cc1c(Cl)cccc1S(=O)(=O)Nc1nc(NCCc2ccccc2)nc2c1CN(Cc1ccccc1)CC2 (2.5 µM)
inactive: MAPK1 = 0 | MAPK4 = 0 | MAPKAPK2 = 0 | MKNK1 = 0 | NTRK2 = 0 | NTRK3 = 0 | PAK4 = 0 | PBK 0 | PDGFRB 0 | PDK1 = 0 | PDPK1 = 0 | PIK4CA 0 | PIK4CB 0 | PLK1 = 0 | PRKAA1 = 0 | PRKCA 0 | PTK2 = 0 | PTK2B 0 | RAF1 = 0 | [1] 0

COC(=O)Nc1ccc(-c2nc(N3CCOCC3)c3cnn(C4CCN(Cc5cccnc5)CC4)c3n2)cc1 (10 µM)
inactive: MAPK1 = 0 | MAPK4 = 0 | MAPKAPK2 = 0 | MKNK1 = 0 | NTRK2 = 0 | NTRK3 = 0 | PAK4 = 0 | PBK 0 | PDGFRB 0 | PDK1 = 0 | PDPK1 = 0 | PIK4CA 0 | PIK4CB 0 | PLK1 = 0 | PRKAA1 = 0 | PRKCA 0 | PTK2 = 0 | PTK2B 0 | RAF1 = 0 | [1] 0
